{"source": "PubChem BioAssay AID588499", "about": "(NMMLSC, 2011)", "note": "In all, about 360,000 compounds went through this assay and about 610 (0.17%) were called active. This list was built around the results that the source calls inconclusive (neither active nor inactive); the mix of calls is not that of the screen. Cut-off read from the data, not from the text of the source: active = inhibition above about 30%; inconclusive = no clear call, values can overlap the other calls; inactive = below that.", "data": [{"tested_on": "Botulinum neurotoxin type A light chain protease (Clostridium botulinum A str. ATCC 3502)", "assay": "blockers of BoNT/A LC substrate cleavage – biochemical, flow cytometry, MLPCN library, primary screen (AID 588499); note: plate controls were buffer without enzyme for full effect and enzyme alone for no effect", "conditions": "multiplex microsphere protease substrate cleavage, at 10 µM, stronger effect = higher value", "values": [{"smiles": "CCOC(=O)N1CCN(C(=O)c2ccc(C)c(S(=O)(=O)Nc3cccc(C)c3C)c2)CC1", "inhibition": "inconclusive: -3.7%"}, {"smiles": "COc1ccc(C(=O)c2sc3nc(C)cc(-c4cccs4)c3c2N)cc1OC", "inhibition": "active: 70.9%"}, {"smiles": "CCn1c(N)c(C(=O)N2CCOCC2)sc1=S", "inhibition": "inactive: -1.2%"}, {"smiles": "O=S(=O)(N/N=C/c1ccc2c(c1)OCCO2)c1ccccc1", "inhibition": "inactive: -0.1%"}, {"smiles": "CCN(CC)S(=O)(=O)c1ccc(Cl)c(C(=O)Nc2nnc(C)s2)c1", "inhibition": "inconclusive: -3.9%"}, {"smiles": "COc1ccc(OC)c(N(CC(=O)N2CCC(C)CC2)S(=O)(=O)c2ccccc2)c1", "inhibition": "inconclusive: 1.2%"}, {"smiles": "CC1CCCCC1NC(=O)C(C)N1C(=O)c2ccccc2C1=O", "note": "(stereo not given)", "inhibition": "inactive: -4.3%"}, {"smiles": "C[C@H](NC(=O)c1cc2cc(Cl)ccc2n1C)C(=O)N[C@@H](C(=O)O)c1ccccc1", "inhibition": "inactive: -0.5%"}, {"smiles": "O=S(=O)(Nc1c(F)cccc1F)c1ccc(Cl)nc1", "inhibition": "inconclusive: 2.1%"}, {"smiles": "COc1ccc(Cc2nc(-c3ccccc3)no2)cc1", "inhibition": "inactive: -2.1%"}, {"smiles": "COc1ccc(C(=O)CCNc2ccc(F)cc2)cc1", "inhibition": "inconclusive: 2.8%"}, {"smiles": "C=CCNC(=S)Nc1ccc2nc(C)c(C)nc2c1", "inhibition": "inconclusive: -0.6%"}, {"smiles": "Cc1[nH]n(-c2ccccc2)c(=O)c1N=Nc1c(Cl)cccc1Cl", "inhibition": "inconclusive: 5.9%"}, {"smiles": "N#Cc1cccc(C(=O)Nc2ccccc2C(=O)NC2CC2)c1", "inhibition": "inconclusive: -4.4%"}, {"smiles": "CCOC(=O)C1=C(CSc2nccn2C)NC(=O)NC1c1cc(C)ccc1C", "note": "(stereo not given)", "inhibition": "inconclusive: -1.1%"}, {"smiles": "CC(C)C(c1nnnn1C1CCCC1)N(C)C1CCCCC1", "note": "(stereo not given)", "inhibition": "inconclusive: -1.7%"}, {"smiles": "Clc1ncccc1-c1nc2ccccc2n1Cc1ccccc1", "inhibition": "inconclusive: 3.7%"}, {"smiles": "CCS(=O)(=O)N1N=C(c2cccc(NS(C)(=O)=O)c2)CC1c1ccccc1", "note": "(stereo not given)", "inhibition": "active: 94.3%"}, {"smiles": "O=C(CCN1C(=O)c2ccccc2C1=O)N1CCN(Cc2ccc(Cl)cc2Cl)CC1", "inhibition": "inconclusive: -337%"}, {"smiles": "CCOC(=O)C1=C(C)OC(N)=C(C#N)C1c1ccc(OC)c(C)c1OC", "note": "(stereo not given)", "inhibition": "inconclusive: -0.3%"}, {"smiles": "CCn1c(CN2CCN(C(=O)c3ccco3)CC2)nc2c1c(=O)n(C)c(=O)n2C", "inhibition": "inconclusive: 2.6%"}, {"smiles": "CC1=[N+]([O-])C(C)(C)N(O)C1(C)C", "inhibition": "inconclusive: -33.5%"}, {"smiles": "COc1ccc(-n2nc(C(=O)NCC(=O)NCc3cccc(F)c3)c3ccccc3c2=O)cc1Cl", "inhibition": "inactive: 3.2%"}, {"smiles": "Cc1cc2ccccc2n1CCNC(=O)c1ccc(Br)o1", "inhibition": "active: 66.4%"}, {"smiles": "COc1cccc(OCCn2cccc2/C=C2/C(=N)N3OC(C)=CC3=NC2=O)c1", "inhibition": "inactive: -0.7%"}, {"smiles": "CN(C)Cc1ccccc1OC(=O)N(C)C", "inhibition": "inactive: 1.5%"}, {"smiles": "CCn1ncc(C2=NOC(C(=O)Nc3ccccc3C(=O)OC)C2)c1C", "note": "(stereo not given)", "inhibition": "inconclusive: 2.7%"}, {"smiles": "O=C([C@H]1O[C@@H](n2ccc(=O)[nH]c2=O)[C@H](O)[C@@H]1O)N1CCN(Cc2ccccn2)CC1", "inhibition": "inactive: -0.1%"}, {"smiles": "COc1ccccc1CC(=O)Nc1ccc([N+](=O)[O-])cc1O", "inhibition": "inactive: -0.2%"}, {"smiles": "CC(OC(=O)Cc1ccccc1[N+](=O)[O-])C(=O)NC(=O)NC1CCCCC1", "note": "(stereo not given)", "inhibition": "inconclusive: 17.9%"}, {"smiles": "O=C(CCn1c(=O)[nH]c2ccsc2c1=O)N1CC(=O)N(CCc2ccccc2)C(=O)C1", "inhibition": "inconclusive: -3.2%"}, {"smiles": "CC(=O)c1cccc(NS(=O)(=O)c2ccc3c(c2)oc(=O)n3C)c1", "inhibition": "inactive: -2.9%"}, {"smiles": "Cn1c(=O)c2c(nc(CN3CCC(C(N)=O)CC3)n2CCc2ccccc2)n(C)c1=O", "inhibition": "inconclusive: 6.4%"}, {"smiles": "Cc1noc(C)c1C(=O)Nc1ccccn1", "inhibition": "inconclusive: -1%"}, {"smiles": "O=C(CSCc1ccccc1Cl)Nc1ccc2c(c1)OCCO2", "inhibition": "inconclusive: 3.5%"}, {"smiles": "Cc1ccccc1NC(=O)CSc1nc(O)cc(=O)n1C", "inhibition": "inconclusive: -4.3%"}, {"smiles": "COc1ccc(/C=N/NC(=O)c2cnccn2)c(OC)c1OC", "inhibition": "inconclusive: 14.1%"}, {"smiles": "CCO[C@H]1OC(C(=O)NCc2ccccc2)=C[C@@H](c2ccc(C(F)(F)F)cc2)[C@@H]1CCCO", "inhibition": "inactive: 0%"}, {"smiles": "CCOP(=O)(Cc1ccc(C#N)o1)OCC", "inhibition": "inconclusive: 9.6%"}, {"smiles": "CCOC(=O)Cn1cc(Cl)c(=O)c(Cl)c1", "inhibition": "inconclusive: -14.3%"}, {"smiles": "O=C(CCNS(=O)(=O)c1ccccc1)OCC(=O)c1ccc[nH]1", "inhibition": "inconclusive: -2.2%"}, {"smiles": "COc1ccc(S(=O)(=O)N2CCN(C(=O)Nc3ccccc3OC)CC2)cc1", "inhibition": "inactive: 0.4%"}, {"smiles": "Cc1cc(-c2nnc(SCC(=O)Nc3ccc(Br)cc3F)n2N)n[nH]1", "inhibition": "inactive: 2%"}, {"smiles": "COc1cc(C2C(C#N)=C(N)OC3=C2C(=O)CC(C)(C)C3)ccc1OCCN1CCOCC1", "note": "(stereo not given)", "inhibition": "inconclusive: 4.9%"}, {"smiles": "COc1ccc(CCCc2nnc(SCC(=O)Nc3cccc(C)c3)o2)cc1", "inhibition": "inactive: -0.1%"}, {"smiles": "CCn1c(SCC(=O)N2CCC(C)CC2)nnc1-c1ccc(S(=O)(=O)N2CCN(C)CC2)cc1", "inhibition": "inconclusive: -0.4%"}, {"smiles": "CCc1nc(SCC(=O)NNC(=O)C2CCCCC2)c2ccccc2n1", "inhibition": "inconclusive: -6.9%"}, {"smiles": "Cc1onc(-c2c(F)cccc2Cl)c1C(=O)ONC(=O)c1ccco1", "inhibition": "inactive: 0.1%"}, {"smiles": "CCSCCNC(=O)c1cc(-n2cnnc2)ccc1Cl", "inhibition": "inconclusive: 2.1%"}, {"smiles": "COc1ccc(-c2cc(-c3c(O)c(OC)c4occc4c3OC)[nH]n2)cc1", "inhibition": "inconclusive: 1.2%"}, {"smiles": "CCC1Oc2ccc(C)cc2N(Cc2cccc(C)c2)C1=O", "note": "(stereo not given)", "inhibition": "inconclusive: -5.2%"}, {"smiles": "O=C(Nc1ccc2c(c1)OCO2)c1cc(-c2ccncc2)nc2ccccc12", "inhibition": "inactive: 2.2%"}, {"smiles": "CCOC(=O)N1CCN(C(=O)c2cc(C)c3c(C)nn(-c4ccccc4)c3n2)CC1", "inhibition": "inactive: -0.9%"}, {"smiles": "CCn1cc(Br)c(C(=O)Nc2ccc(C(=O)OC(C)C)cc2)n1", "inhibition": "inconclusive: -3.1%"}, {"smiles": "O=C1CCC(=O)N1c1ccc(-c2nc3sc4c(c3c(=O)o2)CCC4)cc1", "inhibition": "inconclusive: -6%"}, {"smiles": "O=C(c1cnc2ccccn2c1=O)N1CCc2ccccc21", "inhibition": "inconclusive: 14.3%"}, {"smiles": "CC(C)n1c(=S)[nH]c2cc(Cl)ccc21", "inhibition": "inconclusive: 18.5%"}, {"smiles": "CC(=O)Nc1ccc(S(=O)(=O)N(C)CC(=O)Nc2ccccc2N2CCCC2)cc1", "inhibition": "inconclusive: 17.2%"}, {"smiles": "CS(=O)(=O)N1CCCC(C(=O)Nc2ccc(F)cc2F)C1", "note": "(stereo not given)", "inhibition": "inactive: -0.5%"}, {"smiles": "CC(C)(C)c1[nH]nc2c1C(C1C=CCCC1)C(C#N)=C(N)O2", "note": "(stereo not given)", "inhibition": "inconclusive: 1.5%"}, {"smiles": "CC(=O)/C(=C/Nc1ccc(Oc2ccccc2)cc1)c1ccccc1", "inhibition": "inactive: -0.5%"}, {"smiles": "Cc1ccc(C(C)NC(=O)c2ccco2)cc1", "note": "(stereo not given)", "inhibition": "inconclusive: -0.8%"}, {"smiles": "COc1cc(OC)c(-c2nc3cnccc3n2C)cc1OC", "inhibition": "inconclusive: -2.3%"}, {"smiles": "Cc1ccc(-c2noc(CN(C(=O)Cc3ccccc3)C(C)C)n2)cc1", "inhibition": "inconclusive: 5.4%"}, {"smiles": "Cc1ccc(CNC(=O)c2sc3nc4c(c(C(F)(F)F)c3c2N)CCC4)cc1", "inhibition": "inconclusive: -1.9%"}, {"smiles": "CCOC(=O)c1cnc(-n2cc(C)cn2)nc1NCc1ccc2c(c1)OCO2", "inhibition": "inconclusive: -3.3%"}, {"smiles": "COc1ccc(CNC(=O)CSc2nc3cccnc3s2)cc1", "inhibition": "inconclusive: 4.8%"}, {"smiles": "CCn1c(Cc2cccs2)nnc1SCC(=O)c1ccc(C)cc1", "inhibition": "inconclusive: 3.3%"}, {"smiles": "O=C(CSc1nnc2c(n1)[nH]c1ccccc12)Nc1ccc2c(c1)OCO2", "inhibition": "inconclusive: 3.1%"}, {"smiles": "COc1ccc(-c2csc(NC(=O)c3cccc(N4C(=O)CCC4=O)c3)n2)cc1C", "inhibition": "inactive: -2.2%"}, {"smiles": "NC(=O)C1CCN(C(=O)C2CC(=O)N(c3ccc4c(c3)OCCO4)C2)CC1", "note": "(stereo not given)", "inhibition": "inactive: -1%"}, {"smiles": "O=C(CSc1nccc(-c2cccs2)n1)Nc1ccc(Cl)cc1", "inhibition": "inconclusive: -3.3%"}, {"smiles": "O=C(O)/C=C/C(=O)Nc1ccc(Cl)c(C(=O)O)c1", "inhibition": "inconclusive: 17.2%"}, {"smiles": "Cc1nn(C(C)C)c(C)c1CN1CCCC(CCC(=O)NCc2ccccc2F)C1", "note": "(stereo not given)", "inhibition": "inconclusive: -13.8%"}, {"smiles": "Cc1ccccc1NC(=O)Cn1nnc2sc3c(c2c1=O)CC(C)(C)OC3", "inhibition": "inconclusive: -11.4%"}, {"smiles": "Cc1ccccc1OCC(=O)Nc1ccc(N2CCN(C(=O)c3ccco3)CC2)cc1", "inhibition": "inactive: 0.9%"}, {"smiles": "COc1ccc(-c2cc3ccc(OCC(C)=O)cc3oc2=O)cc1", "inhibition": "inactive: 1.5%"}, {"smiles": "O=C(c1ccc(N2CCOCC2)c([N+](=O)[O-])c1)N1CCCCC1", "inhibition": "inactive: -0.8%"}, {"smiles": "CC(=O)c1ccc(OCCCC(=O)N(CCC2=CCCCC2)c2c(N)n(Cc3ccccc3)c(=O)[nH]c2=O)cc1", "inhibition": "inactive: -0.3%"}, {"smiles": "COC(=O)Nc1nn(Cc2ccccc2F)cc1Br", "inhibition": "inconclusive: 3.5%"}, {"smiles": "CCc1nnc(NC(=O)CSc2nnc3ncccn23)s1", "inhibition": "inconclusive: 0%"}, {"smiles": "O=C(COC(=O)CSc1ccccc1)NCCNC(=O)COC(=O)CSc1ccccc1", "inhibition": "inconclusive: -6.8%"}, {"smiles": "CN(C(=O)CN1C(=O)c2cccc(N)c2C1=O)C1CCCCC1", "inhibition": "inactive: -0.2%"}, {"smiles": "CCCCN1C2=C(C(=O)CCC2)C(c2ccc(Cl)c(Cl)c2)C2=C1c1ccccc1C2=O", "note": "(stereo not given)", "inhibition": "inactive: 1.8%"}, {"smiles": "CSc1ncccc1C(=O)N1CCCC(N2CCN(c3ccccc3C)CC2)C1", "note": "(stereo not given)", "inhibition": "inactive: -0.3%"}, {"smiles": "N#Cc1ccccc1OCC(=O)NNC(=O)CNC(=O)c1cccc(Br)c1", "inhibition": "inconclusive: -3.1%"}, {"smiles": "COc1cc2c(cc1NC(=S)Nc1ccccc1C)oc1ccccc12", "inhibition": "inactive: 0.4%"}, {"smiles": "O=C(Cn1cc(S(=O)(=O)N2CCN(c3ccccc3F)CC2)c2ccccc2c1=O)NCCCN1CCCCCC1", "inhibition": "inactive: -0.3%"}, {"smiles": "CN(C(=O)c1ccc2c(c1)S(=O)(=O)N=C1CCCCCN12)c1ccccc1", "inhibition": "inconclusive: -1.9%"}, {"smiles": "CN(C)c1ccc(P(=O)(OCc2ccccc2)C(O)c2ccccc2)cc1", "note": "(stereo not given)", "inhibition": "inconclusive: -8.8%"}]}]}
